The supplement of paper PMC10849652
Some of the results follow.

Chains of the proteins cited; added tags and fusions are not shown. Lines headed by an entry give the natural chain unless they say otherwise; changes in a name come on top.
UniProt Q969Y2: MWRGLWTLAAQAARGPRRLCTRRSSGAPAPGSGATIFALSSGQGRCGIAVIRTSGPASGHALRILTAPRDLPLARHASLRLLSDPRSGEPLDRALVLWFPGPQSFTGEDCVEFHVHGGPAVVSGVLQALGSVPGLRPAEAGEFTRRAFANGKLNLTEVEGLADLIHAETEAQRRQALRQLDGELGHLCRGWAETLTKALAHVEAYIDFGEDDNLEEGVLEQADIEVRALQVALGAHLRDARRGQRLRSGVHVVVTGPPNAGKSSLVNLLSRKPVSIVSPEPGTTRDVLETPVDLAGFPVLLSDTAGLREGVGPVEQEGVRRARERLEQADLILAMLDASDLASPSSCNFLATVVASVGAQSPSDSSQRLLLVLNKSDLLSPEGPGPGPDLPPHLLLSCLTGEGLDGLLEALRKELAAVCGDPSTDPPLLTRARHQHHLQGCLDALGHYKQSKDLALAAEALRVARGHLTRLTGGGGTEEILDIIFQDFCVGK
UniProt P02100: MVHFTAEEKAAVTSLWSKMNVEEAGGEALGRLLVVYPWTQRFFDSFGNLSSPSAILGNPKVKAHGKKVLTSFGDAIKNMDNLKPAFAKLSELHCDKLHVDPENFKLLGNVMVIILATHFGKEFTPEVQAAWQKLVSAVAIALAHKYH
UniProt P68871: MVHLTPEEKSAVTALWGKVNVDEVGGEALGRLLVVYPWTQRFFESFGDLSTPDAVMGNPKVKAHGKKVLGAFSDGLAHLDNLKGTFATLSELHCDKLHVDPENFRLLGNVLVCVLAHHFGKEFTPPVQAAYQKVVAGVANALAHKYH
UniProt P15170, whole entry, looked up: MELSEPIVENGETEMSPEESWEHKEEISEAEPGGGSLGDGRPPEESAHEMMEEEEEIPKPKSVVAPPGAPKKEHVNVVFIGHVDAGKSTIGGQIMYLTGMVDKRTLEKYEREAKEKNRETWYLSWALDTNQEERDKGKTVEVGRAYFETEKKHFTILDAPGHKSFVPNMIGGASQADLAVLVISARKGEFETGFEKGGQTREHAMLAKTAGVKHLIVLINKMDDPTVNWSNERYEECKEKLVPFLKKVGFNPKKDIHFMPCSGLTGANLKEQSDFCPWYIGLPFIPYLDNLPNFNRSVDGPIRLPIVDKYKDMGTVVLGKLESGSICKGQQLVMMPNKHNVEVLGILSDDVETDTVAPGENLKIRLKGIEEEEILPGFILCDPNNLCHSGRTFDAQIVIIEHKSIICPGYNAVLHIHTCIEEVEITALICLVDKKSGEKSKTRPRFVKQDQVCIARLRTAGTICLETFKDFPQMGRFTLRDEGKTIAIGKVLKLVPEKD
UniProt Q8WW33: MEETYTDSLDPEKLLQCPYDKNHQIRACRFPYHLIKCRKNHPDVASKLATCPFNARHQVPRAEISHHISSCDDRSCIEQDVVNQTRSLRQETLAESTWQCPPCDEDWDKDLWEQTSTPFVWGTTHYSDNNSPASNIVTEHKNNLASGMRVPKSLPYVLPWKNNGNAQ
UniProt Q9UJ83: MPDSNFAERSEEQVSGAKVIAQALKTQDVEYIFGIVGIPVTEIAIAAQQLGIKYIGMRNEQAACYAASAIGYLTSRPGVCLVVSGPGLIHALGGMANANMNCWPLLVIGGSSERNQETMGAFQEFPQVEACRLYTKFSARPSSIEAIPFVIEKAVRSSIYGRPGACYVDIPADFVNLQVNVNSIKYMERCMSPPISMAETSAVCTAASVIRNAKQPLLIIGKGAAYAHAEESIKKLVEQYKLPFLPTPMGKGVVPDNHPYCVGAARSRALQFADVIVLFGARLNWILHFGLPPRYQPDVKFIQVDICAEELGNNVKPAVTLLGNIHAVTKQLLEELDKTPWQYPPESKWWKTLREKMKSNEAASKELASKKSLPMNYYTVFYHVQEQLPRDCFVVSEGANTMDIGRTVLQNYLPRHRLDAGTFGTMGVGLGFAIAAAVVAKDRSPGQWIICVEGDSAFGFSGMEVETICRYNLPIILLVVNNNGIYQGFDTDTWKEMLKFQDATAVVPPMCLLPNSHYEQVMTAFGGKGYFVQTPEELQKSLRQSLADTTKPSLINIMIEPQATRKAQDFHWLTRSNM
UniProt P49590: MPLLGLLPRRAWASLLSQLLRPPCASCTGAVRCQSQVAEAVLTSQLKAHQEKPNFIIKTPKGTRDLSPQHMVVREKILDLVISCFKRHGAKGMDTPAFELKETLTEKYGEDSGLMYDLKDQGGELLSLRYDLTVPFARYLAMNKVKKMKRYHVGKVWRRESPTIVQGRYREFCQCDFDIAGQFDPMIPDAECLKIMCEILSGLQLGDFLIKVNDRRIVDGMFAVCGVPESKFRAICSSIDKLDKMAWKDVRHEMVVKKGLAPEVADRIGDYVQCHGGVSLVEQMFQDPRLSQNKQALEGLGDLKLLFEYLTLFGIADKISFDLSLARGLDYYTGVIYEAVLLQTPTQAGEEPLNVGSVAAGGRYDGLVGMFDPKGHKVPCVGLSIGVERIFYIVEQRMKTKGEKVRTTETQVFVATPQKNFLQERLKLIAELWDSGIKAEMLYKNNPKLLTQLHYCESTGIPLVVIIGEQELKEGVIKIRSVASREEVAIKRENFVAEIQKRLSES
UniProt P53701: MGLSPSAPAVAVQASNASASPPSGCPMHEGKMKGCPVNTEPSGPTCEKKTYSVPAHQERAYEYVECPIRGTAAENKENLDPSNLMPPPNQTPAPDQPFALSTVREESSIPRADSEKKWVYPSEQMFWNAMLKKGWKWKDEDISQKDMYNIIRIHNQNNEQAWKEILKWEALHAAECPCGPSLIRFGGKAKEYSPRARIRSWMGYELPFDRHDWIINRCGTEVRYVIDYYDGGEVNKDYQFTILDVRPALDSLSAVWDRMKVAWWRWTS
UniProt P16403, whole entry, looked up: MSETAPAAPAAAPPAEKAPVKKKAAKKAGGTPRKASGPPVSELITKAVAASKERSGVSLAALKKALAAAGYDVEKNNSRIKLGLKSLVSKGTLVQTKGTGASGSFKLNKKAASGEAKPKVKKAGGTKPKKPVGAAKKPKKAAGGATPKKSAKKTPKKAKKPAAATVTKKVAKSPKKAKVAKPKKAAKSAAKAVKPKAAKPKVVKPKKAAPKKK
UniProt P02724: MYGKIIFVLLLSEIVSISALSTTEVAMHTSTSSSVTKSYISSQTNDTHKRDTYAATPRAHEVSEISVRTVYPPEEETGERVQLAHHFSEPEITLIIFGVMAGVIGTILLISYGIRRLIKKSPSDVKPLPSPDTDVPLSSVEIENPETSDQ
UniProt Q9P035: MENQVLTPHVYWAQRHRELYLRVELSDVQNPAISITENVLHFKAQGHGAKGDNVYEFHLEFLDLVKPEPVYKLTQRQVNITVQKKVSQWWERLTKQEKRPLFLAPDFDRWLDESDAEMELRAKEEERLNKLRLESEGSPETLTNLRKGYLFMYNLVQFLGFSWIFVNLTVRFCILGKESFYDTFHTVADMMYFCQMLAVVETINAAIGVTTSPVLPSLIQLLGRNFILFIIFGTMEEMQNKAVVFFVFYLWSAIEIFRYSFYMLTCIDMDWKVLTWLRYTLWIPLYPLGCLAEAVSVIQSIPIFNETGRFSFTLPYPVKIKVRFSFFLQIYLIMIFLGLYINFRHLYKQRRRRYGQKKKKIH
UniProt O00178: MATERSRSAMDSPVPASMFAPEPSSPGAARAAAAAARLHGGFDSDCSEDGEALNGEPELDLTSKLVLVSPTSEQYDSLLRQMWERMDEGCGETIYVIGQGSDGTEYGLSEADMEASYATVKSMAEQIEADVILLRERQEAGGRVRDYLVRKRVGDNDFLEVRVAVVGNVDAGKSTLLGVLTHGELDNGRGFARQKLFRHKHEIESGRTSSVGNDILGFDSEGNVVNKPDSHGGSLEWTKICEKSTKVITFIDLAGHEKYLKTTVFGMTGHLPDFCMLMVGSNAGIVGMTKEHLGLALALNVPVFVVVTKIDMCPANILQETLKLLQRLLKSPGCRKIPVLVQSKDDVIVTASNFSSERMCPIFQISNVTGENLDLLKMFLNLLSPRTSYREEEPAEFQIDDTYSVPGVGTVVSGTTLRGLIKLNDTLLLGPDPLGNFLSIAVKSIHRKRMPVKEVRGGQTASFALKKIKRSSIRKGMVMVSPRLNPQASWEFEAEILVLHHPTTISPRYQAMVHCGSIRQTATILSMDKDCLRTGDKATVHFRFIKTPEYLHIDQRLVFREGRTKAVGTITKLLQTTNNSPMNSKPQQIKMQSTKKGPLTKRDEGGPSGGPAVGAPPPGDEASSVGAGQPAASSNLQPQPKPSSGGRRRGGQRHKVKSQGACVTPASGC
UniProt P69891: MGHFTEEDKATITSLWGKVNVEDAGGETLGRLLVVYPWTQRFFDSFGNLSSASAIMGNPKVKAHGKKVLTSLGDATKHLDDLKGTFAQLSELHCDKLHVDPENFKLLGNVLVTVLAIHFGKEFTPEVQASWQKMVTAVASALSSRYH
UniProt Q13888: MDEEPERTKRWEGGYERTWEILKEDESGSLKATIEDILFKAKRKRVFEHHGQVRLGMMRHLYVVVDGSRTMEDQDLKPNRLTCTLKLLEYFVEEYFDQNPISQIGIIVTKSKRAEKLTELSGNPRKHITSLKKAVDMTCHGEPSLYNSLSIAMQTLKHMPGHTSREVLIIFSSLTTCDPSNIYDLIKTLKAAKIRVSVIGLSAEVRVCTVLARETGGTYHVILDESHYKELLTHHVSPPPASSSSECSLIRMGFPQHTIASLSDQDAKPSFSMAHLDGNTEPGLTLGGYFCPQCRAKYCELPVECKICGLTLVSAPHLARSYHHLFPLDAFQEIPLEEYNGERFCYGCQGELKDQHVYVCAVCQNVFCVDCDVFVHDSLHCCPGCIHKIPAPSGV
UniProt Q16836: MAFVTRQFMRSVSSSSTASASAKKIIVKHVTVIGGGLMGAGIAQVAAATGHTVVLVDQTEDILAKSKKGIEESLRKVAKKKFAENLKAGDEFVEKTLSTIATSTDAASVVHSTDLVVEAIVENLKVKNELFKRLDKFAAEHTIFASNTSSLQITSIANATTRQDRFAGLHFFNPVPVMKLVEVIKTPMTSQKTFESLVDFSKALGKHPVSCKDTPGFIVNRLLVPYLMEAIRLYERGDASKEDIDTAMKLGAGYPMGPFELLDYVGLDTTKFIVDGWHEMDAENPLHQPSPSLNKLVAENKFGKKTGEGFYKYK
UniProt P16401, whole entry, looked up: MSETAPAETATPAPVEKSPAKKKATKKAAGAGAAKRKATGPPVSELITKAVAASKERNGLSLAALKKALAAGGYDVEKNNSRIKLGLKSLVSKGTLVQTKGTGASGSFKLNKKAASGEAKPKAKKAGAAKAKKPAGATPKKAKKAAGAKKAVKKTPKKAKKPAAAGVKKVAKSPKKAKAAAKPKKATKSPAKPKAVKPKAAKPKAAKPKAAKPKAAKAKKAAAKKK
UniProt Q8N4P3, whole entry, looked up: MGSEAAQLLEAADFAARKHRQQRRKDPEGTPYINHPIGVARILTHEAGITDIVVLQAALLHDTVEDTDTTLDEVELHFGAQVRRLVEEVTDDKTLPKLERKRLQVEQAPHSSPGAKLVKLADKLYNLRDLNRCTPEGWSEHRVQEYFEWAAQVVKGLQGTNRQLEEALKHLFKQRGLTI
UniProt Q9Y450, whole entry, looked up: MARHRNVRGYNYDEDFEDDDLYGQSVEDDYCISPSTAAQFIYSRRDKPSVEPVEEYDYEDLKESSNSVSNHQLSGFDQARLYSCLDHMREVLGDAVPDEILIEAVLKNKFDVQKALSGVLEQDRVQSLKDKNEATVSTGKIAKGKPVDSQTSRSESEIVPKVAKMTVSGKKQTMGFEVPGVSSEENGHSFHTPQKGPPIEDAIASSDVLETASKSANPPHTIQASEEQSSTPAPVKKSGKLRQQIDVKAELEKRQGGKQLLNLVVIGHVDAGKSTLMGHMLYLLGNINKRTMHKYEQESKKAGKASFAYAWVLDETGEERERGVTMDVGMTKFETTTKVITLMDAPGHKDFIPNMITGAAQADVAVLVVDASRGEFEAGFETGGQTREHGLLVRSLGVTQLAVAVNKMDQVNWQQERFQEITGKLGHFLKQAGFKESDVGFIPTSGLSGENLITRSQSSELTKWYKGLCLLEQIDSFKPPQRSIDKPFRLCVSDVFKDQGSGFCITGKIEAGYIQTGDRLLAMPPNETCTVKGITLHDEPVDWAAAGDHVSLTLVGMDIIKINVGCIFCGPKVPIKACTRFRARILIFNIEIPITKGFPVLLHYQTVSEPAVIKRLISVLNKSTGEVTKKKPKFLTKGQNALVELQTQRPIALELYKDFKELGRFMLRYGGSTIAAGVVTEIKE
UniProt P51858: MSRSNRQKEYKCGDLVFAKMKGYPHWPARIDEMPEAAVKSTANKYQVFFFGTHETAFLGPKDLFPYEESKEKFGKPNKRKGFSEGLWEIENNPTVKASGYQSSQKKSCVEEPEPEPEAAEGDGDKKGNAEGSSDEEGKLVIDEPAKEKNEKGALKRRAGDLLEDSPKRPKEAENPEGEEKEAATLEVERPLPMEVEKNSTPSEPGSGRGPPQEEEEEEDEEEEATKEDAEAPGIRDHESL

Key:
Assay in all cases: log2 fold change, soluble protein after heating vs DMSO (PISA); higher = thermal stabilisation; K562 cells, 10 uM, 30 min; active = over 0.2 and 3.5 SD of the protein, either way, in both replicates (recomputed)
[1] = compound: CC[C@@H]1C(=O)N(C)c2cnc(Nc3ccc(C(=O)NC4CCN(C)CC4)cc3OC)nc2N1C1CCCC1
Procedure, shortened: (§1)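 K562 cells at 2×10^6 cells/mL were given 10 μM compound for 30 min. Aliquots then went through 3 min of heating across 48°C-58°C, were pooled, and were extracted in PBS with 0.5% NP-40 at 4°C, and the supernatant after 21,000xg for 90 min was quantified by TMTpro 16plex LC-MS/MS with channel sums equalised. Thermal stability relative to control samples, from duplicates, is given as log2 fold change.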

volasertib = compound: CC[C@@H]1C(=O)N(C)c2cnc(Nc3ccc(C(=O)N[C@H]4CC[C@H](N5CCN(CC6CC6)CC5)CC4)cc3OC)nc2N1C(C)C [volasertib]
Procedure, shortened: as §1

[2] = compound: CC[C@H](C)N1C=C(C2=C(C=C(C=C21)C3=CN=C(C=C3)N4CCNCC4)C(=O)NCC5=C(C=C(NC5=O)C)C)C
Procedure, shortened: as §1

epoxomicin = compound: CC[C@H](C)[C@@H](C(=O)N[C@@H]([C@@H](C)O)C(=O)N[C@@H](CC(C)C)C(=O)[C@]1(CO1)C)NC(=O)[C@H]([C@@H](C)CC)N(C)C(=O)C [epoxomicin]
Procedure, shortened: as §1

[3] = compound: CCn1c(C(=O)N(C2CC2)C2CC2)cc2c3c(ncn3C)c(Nc3cc(C)n(C)n3)nc21
Procedure, shortened: as §1

[4] = compound: CCn1cc(-c2ccnc3[nH]c(-c4cccc(CN(C)C)c4)cc23)c(-c2ccc(NC(=O)N(C)C)cc2)n1
Procedure, shortened: as §1

[5] = compound: CN(C)CC(=O)Nc1ccc2[nH]c(=O)c3ccccc3c2c1
Procedure, shortened: as §1

rosiglitazone = compound: CN(CCOC1=CC=C(C=C1)C[C@H]2C(=O)NC(=O)S2)C3=CC=CC=N3 (racemic) [rosiglitazone]
Procedure, shortened: as §1

[6] = compound: CN1C2=C(C3=C1C(=O)N(N=C3)CC4=CC(=CC=C4)N)SC(=C2)S(=O)C
Procedure, shortened: as §1

[7] = compound: CN1CCC(CNc2ccc3ncc(-c4cccc(OC(F)(F)F)c4)n3n2)CC1
Procedure, shortened: as §1

Measured: log2 fold change

GTPBP3 isoform 2 (UniProt Q969Y2)
inactive: [1] 0.075 | volasertib -0.015 | [2] -0.021 | epoxomicin 0.015 | [3] -0.063 | [4] 0.02 | [5] 0.002 | rosiglitazone 0.024 | [6] -0.059 | [7] -0.002

GSTZ1 (UniProt G3V4T6)
inactive: [1] 0.038 | volasertib 0.078 | [2] 0.042 | epoxomicin -0.09 | [3] 0.006 | [4] -0.022 | [5] 0.011 | rosiglitazone 0.025 | [6] -0.076 | [7] -0.03

HDHD5 (UniProt Q9BXW7)
inactive: [1] -0.071 | volasertib -0.085 | [2] 0.043 | epoxomicin -0.078 | [3] -0.068 | [4] -0.231 | [5] 0.033 | rosiglitazone 0.049 | [6] 0.005 | [7] -0.048

H4C1 (UniProt P62805)
inactive: [1] -0.071 | volasertib 0.12 | [2] -0.11 | epoxomicin -0.323 | [3] 0.173 | [4] 0.334 | [5] -0.124 | rosiglitazone 0 | [6] 0.505 | [7] 0.181

HBE1 (UniProt P02100)
inactive: [1] 0.007 | volasertib -0.069 | [2] -0.037 | epoxomicin 0.302 | [3] 0.078 | [4] -0.01 | [5] 0 | rosiglitazone 0.016 | [6] -0.046 | [7] 0

HBB (UniProt P68871)
inactive: [1] 0.048

GXYLT1 (UniProt Q4G148)
inactive: [1] 0.088 | volasertib -0.11 | [2] -0.026 | epoxomicin 0.09 | [3] 0.03 | [4] -0.318 | [5] -0.113 | rosiglitazone 0.163 | [6] -0.047 | [7] 0.074

HDAC3 isoform 2 (UniProt O15379)
inactive: [1] -0.019 | volasertib -0.057 | [2] 0.071 | epoxomicin 0.038 | [3] 0.004 | [4] -0.013 | [5] 0.095 | rosiglitazone -0.112 | [6] -0.077 | [7] 0.137

GSPT1 isoform 3 (UniProt P15170)
inactive: [1] -0.002 | volasertib 0.064 | [2] -0.014 | epoxomicin 0.031 | [3] 0.015 | [4] -0.048 | [5] 0.013 | rosiglitazone 0.016 | [6] -0.081 | [7] -0.022

GTSF1 (UniProt Q8WW33)
inactive: [1] -0.053 | volasertib 0.092 | [2] 0 | epoxomicin 0.038 | [3] 0.05 | [4] -0.025 | [5] -0.04 | rosiglitazone -0.018 | [6] -0.067 | [7] -0.029

HACL1 (UniProt Q9UJ83)
inactive: [1] 0.049 | volasertib 0.017 | [2] -0.029 | epoxomicin 0.074 | [3] 0.017 | [4] -0.007 | [5] -0.024 | rosiglitazone -0.006 | [6] -0.026 | [7] 0.079

HCFC1 isoform 4 (UniProt P51610)
inactive: [1] 0.05 | volasertib 0.129 | [2] -0.007 | epoxomicin -0.013 | [3] -0.039 | [4] -0.013 | [5] -0.007 | rosiglitazone 0.025 | [6] -0.066 | [7] 0.098

GTPBP2 (UniProt Q9BX10)
inactive: [1] 0.056 | volasertib 0.099 | [2] 0.12 | epoxomicin -0.163 | [3] -0.068 | [4] -0.01 | [5] -0.085 | rosiglitazone -0.02 | [6] 0.061 | [7] -0.058

HARS2 (UniProt P49590)
inactive: [1] 0.058 | volasertib 0.093 | [2] -0.058 | epoxomicin -0.018 | [3] -0.017 | [4] 0.053 | [5] 0 | rosiglitazone 0.004 | [6] -0.011 | [7] 0.077

HCCS (UniProt P53701)
inactive: [1] 0.012 | volasertib -0.007 | [2] -0.037 | epoxomicin -0.014 | [3] 0 | [4] 0.011 | [5] 0.021 | rosiglitazone -0.006 | [6] -0.009 | [7] -0.056

H1-2 (UniProt P16403)
inactive: [1] 0.165 | volasertib 0.475 | [2] -0.022 | epoxomicin -0.115 | [3] 0.006 | [4] 0.283 | [5] -0.108 | rosiglitazone -0.185 | [6] 0.307 | [7] 0.377

GYPA (UniProt P02724)
inactive: [1] 0.046 | volasertib 0.142 | [2] 0.222 | epoxomicin 0.191 | [3] 0.009 | [4] 0.025 | [5] 0.074 | rosiglitazone -0.094 | [6] -0.009 | [7] 0.302

HACD3 (UniProt Q9P035)
inactive: [1] 0.01 | volasertib -0.028 | [2] -0.003 | epoxomicin -0.025 | [3] -0.03 | [4] -0.016 | [5] 0.005 | rosiglitazone 0.035 | [6] 0.003 | [7] 0.135

GSTK1 (UniProt Q9Y2Q3)
inactive: [1] -0.062 | volasertib -0.187 | [2] 0.049 | epoxomicin 0.041 | [3] -0.027 | [4] -0.054 | [5] 0.065 | rosiglitazone 0.03 | [6] -0.098 | [7] 0.064

HDLBP (UniProt Q00341)
inactive: [1] 0.157 | volasertib 0.076 | [2] 0.033 | epoxomicin -0.21 | [3] 0.004 | [4] 0.206 | [5] 0.009 | rosiglitazone -0.061 | [6] 0.243 | [7] 0.023

GTPBP1 (UniProt O00178)
inactive: [1] -0.004 | volasertib -0.157 | [2] 0.009 | epoxomicin -0.024 | [3] 0.022 | [4] 0 | [5] -0.031 | rosiglitazone 0.008 | [6] -0.021 | [7] -0.005

HEMGN (UniProt Q9BXL5)
inactive: [1] 0.012 | volasertib 0.078 | [2] -0.023 | epoxomicin 0.01 | [3] 0.046 | [4] 0.021 | [5] -0.023 | rosiglitazone -0.006 | [6] -0.012 | [7] 0.019

HBG1 (UniProt P69891)
inactive: [1] -0.012 | volasertib -0.057 | [2] -0.013 | epoxomicin 0.188 | [3] 0.066 | [4] -0.036 | [5] -0.013 | rosiglitazone -0.003 | [6] -0.055 | [7] 0.017

GTF2H2 (UniProt Q13888)
inactive: [1] 0.001 | volasertib -0.079 | [2] 0.09 | epoxomicin 0.084 | [3] -0.031 | [4] -0.063 | [5] 0.021 | rosiglitazone -0.01 | [6] 0.065 | [7] -0.007

HADH isoform 2 (UniProt Q16836)
inactive: [1] 0.001 | volasertib 0.068 | [2] 0.021 | epoxomicin 0.07 | [3] 0.023 | [4] -0.06 | [5] -0.021 | rosiglitazone -0.009 | [6] -0.111 | [7] -0.02

HAGH (UniProt Q16775)
inactive: [1] 0.058 | volasertib 0.08 | [2] -0.019 | epoxomicin -0.019 | [3] -0.031 | [4] -0.008 | [5] -0.071 | rosiglitazone 0.059 | [6] -0.063 | [7] -0.095

Random excerpt: two records from the list, in no set order.
HBG1 (UniProt P69891)
inactive: [1] -0.012 | volasertib -0.057 | [2] -0.013 | epoxomicin 0.188 | [3] 0.066 | [4] -0.036 | [5] -0.013 | rosiglitazone -0.003 | [6] -0.055 | [7] 0.017

HEMGN (UniProt Q9BXL5)
inactive: [1] 0.012 | volasertib 0.078 | [2] -0.023 | epoxomicin 0.01 | [3] 0.046 | [4] 0.021 | [5] -0.023 | rosiglitazone -0.006 | [6] -0.012 | [7] 0.019

(continued)

H1-5 (UniProt P16401)
inactive: [1] 0.156 | volasertib 0.396 | [2] -0.002 | epoxomicin -0.334 | [3] -0.076 | [4] 0.203 | [5] -0.114 | rosiglitazone -0.163 | [6] 0.321 | [7] 0.305

HDDC3 (UniProt Q8N4P3)
inactive: [1] 0.032 | volasertib 0.055 | [2] -0.027 | epoxomicin 0.012 | [3] 0.017 | [4] -0.048 | [5] -0.057 | rosiglitazone -0.032 | [6] -0.025 | [7] -0.084

HBS1L (UniProt Q9Y450)
inactive: [1] 0.007 | volasertib -0.057 | [2] 0.026 | epoxomicin 0.02 | [3] -0.006 | [4] -0.032 | [5] -0.006 | rosiglitazone 0.032 | [6] -0.035 | [7] -0.024

HDGF (UniProt P51858)
inactive: [1] -0.027 | volasertib -0.042 | [2] 0.016 | epoxomicin 0.009 | [3] 0.002 | [4] -0.02 | [5] -0.01 | rosiglitazone 0.009 | [6] -0.056 | [7] -0.125
